Laboratory results as given in the supplement of paper PMC4635364.
Where a name gives a salt, the structure may show the parent alone. Some of the results follow. Single values are uncertain here, since repeats match poorly.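 ReNCell VM, a human fetal ventral-midbrain neural progenitor line, was differentiated without mitogens. Blinded raters scored images stained for doublecortin (early neurons) or tyrosine hydroxylase (dopaminergic neurons) against untreated wells (0 = no change). Scores were averaged across repeats and both raters, and compounds averaging 2 or more were selected as hits for retesting.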

Experiments:
ReNCell VM [1] = experiment: neuronal differentiation score (DCX+ cell fraction vs untreated, manual image score) (score (-3 to 3)); higher = more neuronal differentiation; conditions: 2 uM, 2 weeks
ReNCell VM [2] = experiment: dopaminergic neuron differentiation score (TH+ cell fraction vs untreated, manual image score) (score (0 to 3)); higher = more TH+ dopaminergic neuron differentiation; conditions: 2 uM, 4 weeks, BDNF 10 ng/ml + GDNF 10 ng/ml

CC(=O)O[C@H]1C[C@@H]2CC[C@@H]3[C@H](CC[C@@]4(C)[C@H]3C[C@H]([N+]3(C)CCCCC3)[C@@H]4OC(C)=O)[C@@]2(C)C[C@@H]1[N+]1(C)CCCCC1 [Pancuronium bromide]
inactive: neuronal differentiation score (ReNCell VM [1]; library: LOPAC) 0 | neuronal differentiation score (ReNCell VM [1]; library: Prestwick) 0 | dopaminergic neuron differentiation score (ReNCell VM [2]; library: LOPAC) 0 | dopaminergic neuron differentiation score (ReNCell VM [2]; library: Prestwick) 0

COc1cc([C@@H]2c3cc4c(cc3[C@H](O)[C@H]3COC(=O)[C@H]23)OCO4)cc(OC)c1OC [Podophyllotoxin]
inactive: neuronal differentiation score (ReNCell VM [1]; library: LOPAC) 0 | neuronal differentiation score (ReNCell VM [1]; library: Phytochemical) 0 | neuronal differentiation score (ReNCell VM [1]; library: Prestwick) 0 | dopaminergic neuron differentiation score (ReNCell VM [2]; library: LOPAC) 0 | dopaminergic neuron differentiation score (ReNCell VM [2]; library: Phytochemical) 0 | dopaminergic neuron differentiation score (ReNCell VM [2]; library: Prestwick) 0

CN1CCC(c2c[nH]c3ccc(O)cc23)CC1
inactive: neuronal differentiation score (ReNCell VM [1]; library: LOPAC) 0 | neuronal differentiation score (ReNCell VM [1]; library: Tocriscreen) 0 | dopaminergic neuron differentiation score (ReNCell VM [2]; library: LOPAC) 0 | dopaminergic neuron differentiation score (ReNCell VM [2]; library: Tocriscreen) 0

CC(C)N(CCC(C(N)=O)(c1ccccc1)c1ccccn1)C(C)C (stereo not drawn) [Disopyramide]
inactive: neuronal differentiation score (ReNCell VM [1]; library: LOPAC) -1 | neuronal differentiation score (ReNCell VM [1]; library: Prestwick) 0 | dopaminergic neuron differentiation score (ReNCell VM [2]; library: LOPAC) 0 | dopaminergic neuron differentiation score (ReNCell VM [2]; library: Prestwick) 0

O=C(N[C@H]1CN2CCC1CC2)c1ccc(Cl)cc1
inactive: neuronal differentiation score (ReNCell VM [1]; library: LOPAC) 0 | neuronal differentiation score (ReNCell VM [1]; library: Tocriscreen) 0 | dopaminergic neuron differentiation score (ReNCell VM [2]; library: LOPAC) 0 | dopaminergic neuron differentiation score (ReNCell VM [2]; library: Tocriscreen) 0

CCOC(=O)c1ncn2c1[C@@H]1CCCN1C(=O)c1cc(OC)ccc1-2
inactive: neuronal differentiation score (ReNCell VM [1]; library: LOPAC) 0 | neuronal differentiation score (ReNCell VM [1]; library: Tocriscreen) 0 | dopaminergic neuron differentiation score (ReNCell VM [2]; library: LOPAC) 0 | dopaminergic neuron differentiation score (ReNCell VM [2]; library: Tocriscreen) 0

NCC1(CC(=O)O)CCCCC1 [Gabapentin]
inactive: neuronal differentiation score (ReNCell VM [1]; library: LOPAC) 0 | neuronal differentiation score (ReNCell VM [1]; library: Prestwick) 0 | dopaminergic neuron differentiation score (ReNCell VM [2]; library: LOPAC) 0 | dopaminergic neuron differentiation score (ReNCell VM [2]; library: Prestwick) 0

CCC1(C2=NCCN2)Cc2ccccc2O1 (stereo not drawn) [Efaroxan hydrochloride]
inactive: neuronal differentiation score (ReNCell VM [1]; library: LOPAC) 0 | neuronal differentiation score (ReNCell VM [1]; library: Tocriscreen) 0 | dopaminergic neuron differentiation score (ReNCell VM [2]; library: LOPAC) 0 | dopaminergic neuron differentiation score (ReNCell VM [2]; library: Tocriscreen) 0

Ordered by SMILES length (falling): some entries from above.
O=C(N[C@H]1CN2CCC1CC2)c1ccc(Cl)cc1
inactive: neuronal differentiation score (ReNCell VM [1]; library: LOPAC) 0 | neuronal differentiation score (ReNCell VM [1]; library: Tocriscreen) 0 | dopaminergic neuron differentiation score (ReNCell VM [2]; library: LOPAC) 0 | dopaminergic neuron differentiation score (ReNCell VM [2]; library: Tocriscreen) 0

CN1CCC(c2c[nH]c3ccc(O)cc23)CC1
inactive: neuronal differentiation score (ReNCell VM [1]; library: LOPAC) 0 | neuronal differentiation score (ReNCell VM [1]; library: Tocriscreen) 0 | dopaminergic neuron differentiation score (ReNCell VM [2]; library: LOPAC) 0 | dopaminergic neuron differentiation score (ReNCell VM [2]; library: Tocriscreen) 0

CCC1(C2=NCCN2)Cc2ccccc2O1 (stereo not drawn) [Efaroxan hydrochloride]
inactive: neuronal differentiation score (ReNCell VM [1]; library: LOPAC) 0 | neuronal differentiation score (ReNCell VM [1]; library: Tocriscreen) 0 | dopaminergic neuron differentiation score (ReNCell VM [2]; library: LOPAC) 0 | dopaminergic neuron differentiation score (ReNCell VM [2]; library: Tocriscreen) 0

Next results:

COc1ccc(-n2nc(C(F)(F)F)cc2-c2ccc(Cl)cc2)cc1
inactive: neuronal differentiation score (ReNCell VM [1]; library: LOPAC) 0 | neuronal differentiation score (ReNCell VM [1]; library: Tocriscreen) 0 | dopaminergic neuron differentiation score (ReNCell VM [2]; library: LOPAC) 0 | dopaminergic neuron differentiation score (ReNCell VM [2]; library: Tocriscreen) 0
